Some of the results follow.
Key:
Experiment in all cases: log2 fold change, soluble protein after heating vs DMSO (PISA); higher = thermal stabilisation; K562 cells, 10 uM, 30 min; active = over 0.2 and 3.5 SD of the protein, either way, in both replicates (recomputed)
[1] = compound: C#Cc1cccc(Nc2ncnc3cc(OCCOC)c(OCCOC)cc23)c1 [erlotinib]
Method in brief: (§1)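 Soluble protein was defined as the supernatant after 21,000xg for 90 min. It came from K562 cells at 2×10^6 cells/mL given 10 μM compound for 30 min, heated in aliquots for 3 min across 48°C-58°C, pooled, and extracted in PBS with 0.5% NP-40 at 4°C, and was quantified by TMTpro 16plex LC-MS/MS with equalised channel sums. Thermal stability against control samples, from duplicates, is reported as log2 fold change.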

Amino acid sequences for entries named in this document (tags omitted). A change or cut given only in a name is not applied to a line headed by its entry.
UniProt P10599: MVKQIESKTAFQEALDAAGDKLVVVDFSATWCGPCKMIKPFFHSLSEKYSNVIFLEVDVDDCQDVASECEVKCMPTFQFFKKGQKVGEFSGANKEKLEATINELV
UniProt P0DPH7, whole entry, looked up: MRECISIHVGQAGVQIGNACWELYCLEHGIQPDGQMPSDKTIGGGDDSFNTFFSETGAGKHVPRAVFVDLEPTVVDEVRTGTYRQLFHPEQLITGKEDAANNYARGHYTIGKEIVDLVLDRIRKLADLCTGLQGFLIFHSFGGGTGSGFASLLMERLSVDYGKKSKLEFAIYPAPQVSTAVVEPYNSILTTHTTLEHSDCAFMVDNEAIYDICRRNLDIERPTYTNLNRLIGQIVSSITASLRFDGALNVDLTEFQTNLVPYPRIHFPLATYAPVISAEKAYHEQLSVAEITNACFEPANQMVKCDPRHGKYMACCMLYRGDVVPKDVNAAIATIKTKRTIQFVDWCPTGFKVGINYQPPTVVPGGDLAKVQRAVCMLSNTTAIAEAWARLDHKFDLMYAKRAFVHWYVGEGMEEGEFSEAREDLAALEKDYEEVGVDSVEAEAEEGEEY
UniProt P51965: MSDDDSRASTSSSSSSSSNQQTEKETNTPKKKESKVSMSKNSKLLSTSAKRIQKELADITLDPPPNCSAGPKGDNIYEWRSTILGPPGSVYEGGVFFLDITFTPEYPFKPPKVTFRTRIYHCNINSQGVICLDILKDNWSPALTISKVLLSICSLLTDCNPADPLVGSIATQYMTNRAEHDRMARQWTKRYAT
UniProt Q8N5M4: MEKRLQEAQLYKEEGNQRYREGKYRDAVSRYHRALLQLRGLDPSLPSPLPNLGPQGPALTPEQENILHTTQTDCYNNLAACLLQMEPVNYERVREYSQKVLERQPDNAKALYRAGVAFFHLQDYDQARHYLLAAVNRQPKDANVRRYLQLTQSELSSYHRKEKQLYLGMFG
UniProt Q9NZ09: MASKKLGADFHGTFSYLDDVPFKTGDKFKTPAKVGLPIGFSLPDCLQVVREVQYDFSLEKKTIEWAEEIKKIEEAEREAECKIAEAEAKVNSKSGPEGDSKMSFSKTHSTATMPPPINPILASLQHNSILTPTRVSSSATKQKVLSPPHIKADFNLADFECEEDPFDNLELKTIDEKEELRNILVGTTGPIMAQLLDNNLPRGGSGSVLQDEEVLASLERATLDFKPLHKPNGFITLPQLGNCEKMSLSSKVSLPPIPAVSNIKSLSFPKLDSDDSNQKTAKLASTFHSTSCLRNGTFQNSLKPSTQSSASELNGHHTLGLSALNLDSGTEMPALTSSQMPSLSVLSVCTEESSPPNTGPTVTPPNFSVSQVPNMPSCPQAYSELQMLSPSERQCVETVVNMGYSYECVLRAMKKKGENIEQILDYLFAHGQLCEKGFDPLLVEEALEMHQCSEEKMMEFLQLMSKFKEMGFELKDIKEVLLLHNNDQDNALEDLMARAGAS
UniProt Q3KQV9: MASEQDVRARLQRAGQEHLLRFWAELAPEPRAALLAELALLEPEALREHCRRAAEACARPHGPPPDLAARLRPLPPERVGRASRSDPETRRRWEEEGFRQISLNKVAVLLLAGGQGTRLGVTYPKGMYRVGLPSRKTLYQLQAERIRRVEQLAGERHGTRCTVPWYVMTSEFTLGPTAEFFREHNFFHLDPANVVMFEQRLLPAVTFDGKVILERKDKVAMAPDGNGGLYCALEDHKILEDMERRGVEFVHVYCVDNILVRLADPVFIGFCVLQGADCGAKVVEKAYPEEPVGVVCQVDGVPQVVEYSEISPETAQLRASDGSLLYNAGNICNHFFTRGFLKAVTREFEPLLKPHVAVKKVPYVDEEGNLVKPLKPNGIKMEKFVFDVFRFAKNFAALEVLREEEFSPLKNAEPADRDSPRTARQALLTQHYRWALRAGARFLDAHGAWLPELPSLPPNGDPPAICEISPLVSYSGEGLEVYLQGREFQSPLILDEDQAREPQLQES
UniProt Q9NPD8: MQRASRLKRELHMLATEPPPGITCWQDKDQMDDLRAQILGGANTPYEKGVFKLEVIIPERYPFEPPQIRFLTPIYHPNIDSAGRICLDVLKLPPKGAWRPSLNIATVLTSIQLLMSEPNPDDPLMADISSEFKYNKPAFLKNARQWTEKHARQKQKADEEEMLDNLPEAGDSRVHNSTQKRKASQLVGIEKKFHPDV
UniProt P61088: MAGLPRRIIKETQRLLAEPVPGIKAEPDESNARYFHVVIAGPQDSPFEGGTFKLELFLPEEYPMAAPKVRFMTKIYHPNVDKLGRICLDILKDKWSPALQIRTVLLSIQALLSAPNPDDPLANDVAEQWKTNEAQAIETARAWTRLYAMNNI
UniProt P62256: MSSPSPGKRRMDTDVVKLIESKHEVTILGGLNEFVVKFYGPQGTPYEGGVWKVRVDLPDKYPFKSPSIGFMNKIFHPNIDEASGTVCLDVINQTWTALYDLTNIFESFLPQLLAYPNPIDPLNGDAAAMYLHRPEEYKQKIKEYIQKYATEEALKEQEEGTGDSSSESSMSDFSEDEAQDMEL
UniProt Q15631: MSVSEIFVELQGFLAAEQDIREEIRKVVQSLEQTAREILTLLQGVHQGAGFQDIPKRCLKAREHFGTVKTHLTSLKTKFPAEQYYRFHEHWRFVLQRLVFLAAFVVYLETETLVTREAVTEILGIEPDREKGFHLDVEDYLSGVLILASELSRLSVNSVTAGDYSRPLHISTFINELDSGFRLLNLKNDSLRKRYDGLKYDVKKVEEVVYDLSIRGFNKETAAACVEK
UniProt Q9Y5U2: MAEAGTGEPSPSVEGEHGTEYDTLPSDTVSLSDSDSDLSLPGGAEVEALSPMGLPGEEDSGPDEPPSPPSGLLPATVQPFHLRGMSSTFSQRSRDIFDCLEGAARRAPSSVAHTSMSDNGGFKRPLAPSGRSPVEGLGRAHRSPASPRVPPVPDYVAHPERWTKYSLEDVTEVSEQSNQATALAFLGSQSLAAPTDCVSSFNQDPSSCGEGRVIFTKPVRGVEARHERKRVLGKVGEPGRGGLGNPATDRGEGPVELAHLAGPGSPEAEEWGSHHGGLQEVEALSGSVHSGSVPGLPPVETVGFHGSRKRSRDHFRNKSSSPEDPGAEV
UniProt Q8NBM4: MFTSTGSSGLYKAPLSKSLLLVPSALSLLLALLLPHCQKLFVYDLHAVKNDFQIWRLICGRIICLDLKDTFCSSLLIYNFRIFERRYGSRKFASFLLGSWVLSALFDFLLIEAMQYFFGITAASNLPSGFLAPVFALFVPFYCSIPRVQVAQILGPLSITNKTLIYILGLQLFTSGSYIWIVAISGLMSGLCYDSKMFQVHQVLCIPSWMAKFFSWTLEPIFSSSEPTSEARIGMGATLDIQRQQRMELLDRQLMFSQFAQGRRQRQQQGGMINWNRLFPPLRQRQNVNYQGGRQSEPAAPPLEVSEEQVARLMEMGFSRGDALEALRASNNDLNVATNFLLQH
UniProt Q6PID6, whole entry, looked up: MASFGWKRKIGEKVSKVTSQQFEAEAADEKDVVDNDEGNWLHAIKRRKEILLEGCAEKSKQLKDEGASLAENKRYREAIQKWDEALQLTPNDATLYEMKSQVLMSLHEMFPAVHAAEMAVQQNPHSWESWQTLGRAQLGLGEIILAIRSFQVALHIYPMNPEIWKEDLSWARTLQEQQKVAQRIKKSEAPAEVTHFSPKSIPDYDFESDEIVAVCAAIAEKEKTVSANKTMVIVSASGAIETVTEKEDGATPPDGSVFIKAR
UniProt Q96J42: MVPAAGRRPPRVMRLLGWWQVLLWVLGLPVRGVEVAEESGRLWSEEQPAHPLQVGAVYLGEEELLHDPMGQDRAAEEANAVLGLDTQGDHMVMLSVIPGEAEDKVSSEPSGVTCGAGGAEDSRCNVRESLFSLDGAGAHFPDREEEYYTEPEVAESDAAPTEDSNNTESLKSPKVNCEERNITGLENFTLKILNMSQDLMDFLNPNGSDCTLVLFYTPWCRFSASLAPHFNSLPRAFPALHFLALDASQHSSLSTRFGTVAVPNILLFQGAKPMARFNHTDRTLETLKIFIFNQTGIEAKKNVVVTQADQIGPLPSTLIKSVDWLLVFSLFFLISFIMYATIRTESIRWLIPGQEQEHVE
UniProt Q8NBS9: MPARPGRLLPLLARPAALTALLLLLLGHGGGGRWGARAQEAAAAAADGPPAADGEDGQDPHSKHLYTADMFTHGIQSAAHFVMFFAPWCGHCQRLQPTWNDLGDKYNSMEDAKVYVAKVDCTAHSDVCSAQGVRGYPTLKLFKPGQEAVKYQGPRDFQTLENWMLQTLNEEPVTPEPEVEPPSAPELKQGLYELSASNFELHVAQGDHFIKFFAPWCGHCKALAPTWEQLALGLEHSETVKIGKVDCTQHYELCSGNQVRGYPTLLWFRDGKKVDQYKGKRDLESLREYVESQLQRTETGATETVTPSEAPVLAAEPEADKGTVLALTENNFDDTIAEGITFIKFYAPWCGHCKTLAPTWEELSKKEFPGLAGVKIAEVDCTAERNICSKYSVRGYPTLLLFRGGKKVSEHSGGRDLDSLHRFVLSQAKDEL
UniProt Q9NNW7, whole entry, looked up: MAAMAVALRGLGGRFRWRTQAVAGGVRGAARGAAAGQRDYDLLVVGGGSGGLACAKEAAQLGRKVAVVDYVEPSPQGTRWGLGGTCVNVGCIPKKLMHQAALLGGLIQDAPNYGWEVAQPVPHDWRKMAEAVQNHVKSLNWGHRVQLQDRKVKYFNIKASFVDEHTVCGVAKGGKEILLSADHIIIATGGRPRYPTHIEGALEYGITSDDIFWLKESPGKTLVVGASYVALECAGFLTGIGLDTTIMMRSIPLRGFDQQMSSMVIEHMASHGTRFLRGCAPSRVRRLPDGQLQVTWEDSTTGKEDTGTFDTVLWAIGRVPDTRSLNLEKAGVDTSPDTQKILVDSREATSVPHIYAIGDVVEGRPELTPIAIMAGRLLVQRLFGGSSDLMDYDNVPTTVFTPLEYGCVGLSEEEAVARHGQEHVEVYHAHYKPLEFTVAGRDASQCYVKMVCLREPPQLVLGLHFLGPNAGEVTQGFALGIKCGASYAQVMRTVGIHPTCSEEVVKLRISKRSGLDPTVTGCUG
UniProt Q6DKK2: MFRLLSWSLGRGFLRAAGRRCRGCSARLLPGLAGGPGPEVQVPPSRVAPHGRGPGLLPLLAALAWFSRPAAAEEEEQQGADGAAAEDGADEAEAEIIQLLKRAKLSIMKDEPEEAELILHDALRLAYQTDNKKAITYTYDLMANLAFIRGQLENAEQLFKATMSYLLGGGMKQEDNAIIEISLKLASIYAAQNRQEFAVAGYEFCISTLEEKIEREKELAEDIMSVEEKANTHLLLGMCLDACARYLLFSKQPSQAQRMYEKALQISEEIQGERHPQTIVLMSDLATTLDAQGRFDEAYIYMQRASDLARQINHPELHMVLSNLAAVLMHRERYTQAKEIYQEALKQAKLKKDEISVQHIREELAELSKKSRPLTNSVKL
UniProt P83876: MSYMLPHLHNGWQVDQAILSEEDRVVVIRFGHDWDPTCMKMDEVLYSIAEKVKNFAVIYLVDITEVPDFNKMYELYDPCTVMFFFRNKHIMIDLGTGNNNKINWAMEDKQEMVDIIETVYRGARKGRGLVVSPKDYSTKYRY
UniProt Q5T6F2: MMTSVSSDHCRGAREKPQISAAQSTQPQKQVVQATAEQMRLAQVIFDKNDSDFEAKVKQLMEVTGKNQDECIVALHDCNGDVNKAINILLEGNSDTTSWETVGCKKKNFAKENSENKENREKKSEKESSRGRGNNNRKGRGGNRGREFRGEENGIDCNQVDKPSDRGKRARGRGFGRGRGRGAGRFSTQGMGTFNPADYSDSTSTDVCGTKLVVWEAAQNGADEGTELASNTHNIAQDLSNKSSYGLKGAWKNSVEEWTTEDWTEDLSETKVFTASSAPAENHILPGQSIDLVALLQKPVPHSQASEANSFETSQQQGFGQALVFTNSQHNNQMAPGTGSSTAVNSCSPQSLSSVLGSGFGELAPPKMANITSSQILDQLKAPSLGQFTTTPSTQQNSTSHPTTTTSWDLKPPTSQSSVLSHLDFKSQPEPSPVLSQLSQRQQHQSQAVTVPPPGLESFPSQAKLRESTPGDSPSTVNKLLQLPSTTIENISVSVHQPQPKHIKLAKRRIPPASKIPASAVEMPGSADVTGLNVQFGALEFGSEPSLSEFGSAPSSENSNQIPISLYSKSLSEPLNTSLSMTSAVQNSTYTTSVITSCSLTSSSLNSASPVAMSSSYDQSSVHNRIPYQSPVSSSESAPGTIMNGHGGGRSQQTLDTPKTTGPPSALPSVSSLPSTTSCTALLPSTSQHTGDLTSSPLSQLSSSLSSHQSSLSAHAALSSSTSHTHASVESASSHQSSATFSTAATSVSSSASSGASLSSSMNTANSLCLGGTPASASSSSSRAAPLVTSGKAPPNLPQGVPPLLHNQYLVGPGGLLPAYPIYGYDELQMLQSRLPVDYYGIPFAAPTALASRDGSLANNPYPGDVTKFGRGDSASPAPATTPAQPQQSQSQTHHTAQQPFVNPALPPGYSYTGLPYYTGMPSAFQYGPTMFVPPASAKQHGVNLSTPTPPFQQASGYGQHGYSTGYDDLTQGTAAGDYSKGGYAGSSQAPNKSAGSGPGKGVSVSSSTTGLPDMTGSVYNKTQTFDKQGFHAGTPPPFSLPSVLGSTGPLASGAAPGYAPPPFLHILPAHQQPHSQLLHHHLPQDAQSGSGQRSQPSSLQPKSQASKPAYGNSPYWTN

[2] = compound: C/C(=N\NC(=O)C1=CC(=CC=C1)S(=O)(=O)N2CCOCC2)/C3=C(C=CC(=C3)Cl)O
Method in brief: as §1

[3] = compound: C1=CC(=C(C=C1Cl)C2=NC3=NC=CN=C3C(=N2)NC4=CC=NC=C4)F
Method in brief: as §1

[4] = compound: C1=CC(=CC=C1C2=NC3=C(N2)C=C(C=C3)C(=O)N)OC4=CC=C(C=C4)Cl
Method in brief: as §1

[5] = compound: C1=CC2=C(C=CC(=C2)/C=C\3/C(=O)NC(=NCC4=CC=CS4)S3)N=C1
Method in brief: as §1

[6] = compound: C1=CC2=NC=CN=C2C=C1/C=C/3\C(=O)NC(=O)S3
Method in brief: as §1

[7] = compound: C1=CC=C(C=C1)C2=NC(=C(N2)C3=CC=NC=C3)C4=CC(=C(C=C4)Cl)O
Method in brief: as §1

[8] = compound: C1=CC=C2C(=C1)C3=NNC4=CC=CC(=C43)C2=O
Method in brief: as §1

[9] = compound: C1CCN(C1)C(=O)NC2=CC=CC(=C2)NC3=NC=C(C(=N3)NCCC4=CN=CN4)Br
Method in brief: as §1

[10] = compound: C1CN(CCC1(CC2=CC=C(C=C2)Cl)N)C3=NC=NC4=C3C=CN4
Method in brief: as §1

Row | Target | log2 fold change [1] | log2 fold change [2] | log2 fold change [3] | log2 fold change [4] | log2 fold change [5] | log2 fold change [6] | log2 fold change [7] | log2 fold change [8] | log2 fold change [9] | log2 fold change [10]
1 | TXN (UniProt P10599) | inactive: -0.031 | inactive: -0.023 | inactive: 0.057 | inactive: 0.02 | inactive: -0.069 | inactive: -0.012 | inactive: -0.022 | inactive: 0.003 | inactive: 0.02 | inactive: 0.039
2 | TUBA3C (UniProt P0DPH7) | inactive: 0.101 | inactive: -0.032 | inactive: 0.072 | inactive: 0.079 | inactive: -0.002 | inactive: 0.011 | inactive: 0.004 | inactive: -0.026 | inactive: 0.071 | inactive: 0.059
3 | TTC27 (UniProt Q6P3X3) | inactive: 0.038 | inactive: 0.126 | inactive: -0.13 | inactive: -0.053 | inactive: -0.02 | inactive: -0.026 | inactive: 0.112 | inactive: -0.01 | inactive: -0.011 | inactive: -0.099
4 | UBE2E1 (UniProt P51965) | inactive: -0.044 | inactive: 0.1 | inactive: 0.192 | inactive: -0.043 | inactive: -0.035 | inactive: 0.048 | inactive: 0.029 | inactive: 0.04 | inactive: -0.088 | inactive: -0.081
5 | TTC9C (UniProt Q8N5M4) | inactive: -0.055 | inactive: 0.105 | inactive: 0.013 | inactive: -0.007 | inactive: 0.047 | inactive: 0.008 | inactive: 0.048 | inactive: 0.01 | inactive: 0.018 | inactive: 0.021
6 | TUBE1 (UniProt Q9UJT0) | inactive: 0.03 | inactive: 0.027 | inactive: -0.011 | inactive: 0.017 | inactive: 0.009 | inactive: -0.014 | inactive: -0.022 | inactive: 0.01 | inactive: -0.016 | inactive: -0.017
7 | UBA3 (UniProt Q8TBC4) | inactive: 0.046 | inactive: 0.12 | inactive: 0.098 | inactive: 0 | inactive: 0.049 | inactive: 0.022 | inactive: 0.043 | inactive: 0.019 | inactive: -0.009 | inactive: -0.033
8 | UBAP1 isoform 4 (UniProt Q9NZ09) | inactive: 0.001 | inactive: 0.127 | inactive: 0.013 | inactive: 0.049 | inactive: 0.025 | inactive: 0.027 | inactive: -0.02 | inactive: 0.024 | inactive: 0.058 | inactive: -0.093
9 | UAP1L1 (UniProt Q3KQV9) | inactive: 0.01 | inactive: -0.021 | inactive: 0.057 | inactive: 0.021 | inactive: 0.023 | inactive: 0.005 | inactive: 0.032 | inactive: -0.01 | inactive: 0.014 | inactive: 0.028
10 | TYW3 (UniProt Q6IPR3) | inactive: 0.056 | inactive: -0.036 | inactive: -0.114 | inactive: 0.034 | inactive: -0.051 | inactive: -0.051 | inactive: -0.039 | inactive: -0.019 | inactive: -0.021 | inactive: 0.062
11 | UBE2T (UniProt Q9NPD8) | inactive: 0.023 | inactive: 0.091 | inactive: -0.022 | inactive: 0.041 | inactive: 0.002 | inactive: 0.02 | inactive: -0.005 | inactive: -0.034 | inactive: 0.005 | inactive: 0.001
12 | UBE2N (UniProt P61088) | inactive: 0.064 | inactive: 0.052 | inactive: 0.113 | inactive: -0.058 | inactive: 0.064 | inactive: 0.059 | inactive: 0.04 | inactive: 0.018 | inactive: -0.006 | inactive: 0.004
13 | UBE2H (UniProt P62256) | inactive: -0.005 | inactive: 0.059 | inactive: 0.033 | inactive: 0 | inactive: 0.025 | inactive: -0.037 | inactive: -0.042 | inactive: -0.036 | inactive: -0.021 | inactive: -0.008
14 | UAP1 (UniProt Q16222) | inactive: 0.005 | inactive: 0.042 | inactive: 0.065 | inactive: 0.005 | inactive: 0.021 | inactive: -0.048 | inactive: -0.001 | inactive: 0.004 | inactive: 0.025 | inactive: 0.025
15 | UBE2R2 (UniProt Q712K3) | inactive: -0.027 | inactive: 0.025 | inactive: 0.059 | inactive: -0.021 | inactive: -0.075 | inactive: 0.04 | inactive: 0.002 | inactive: 0.021 | inactive: 0.021 | inactive: 0.017
16 | TSN (UniProt Q15631) | inactive: -0.004 | inactive: -0.009 | inactive: 0.042 | inactive: 0.021 | inactive: 0.03 | inactive: 0.01 | inactive: 0.074 | inactive: 0.031 | inactive: -0.057 | inactive: 0.052
17 | TSSC4 (UniProt Q9Y5U2) | inactive: 0.175 | inactive: -0.138 | inactive: -0.031 | inactive: -0.004 | inactive: 0.021 | inactive: 0.008 | inactive: -0.101 | inactive: -0.065 | inactive: 0.013 | inactive: 0.044
18 | TTMP isoform 3 (UniProt Q5BVD1) | inactive: 0.266 | inactive: -0.252 | inactive: 0.022 | inactive: -0.129 | inactive: 0.253 | inactive: -0.017 | inactive: 0.021 | inactive: 0.043 | inactive: -0.082 | inactive: 0.421
19 | UBAC2 (UniProt Q8NBM4) | inactive: 0.011 | inactive: 0.041 | inactive: -0.048 | inactive: 0.009 | inactive: 0.065 | inactive: 0.14 | inactive: 0.075 | inactive: -0.017 | inactive: -0.092 | inactive: 0.046
20 | TTC33 (UniProt Q6PID6) | inactive: 0.065 | inactive: -0.035 | inactive: 0.019 | inactive: 0.001 | inactive: 0.176 | inactive: -0.107 | inactive: -0.045 | inactive: -0.038 | – | –
21 | TXNDC15 (UniProt Q96J42) | inactive: -0.085 | inactive: 0.031 | inactive: 0.015 | inactive: -0.007 | inactive: -0.125 | inactive: 0.054 | inactive: -0.055 | inactive: -0.114 | inactive: 0.128 | inactive: 0.049
22 | TXNDC5 (UniProt Q8NBS9) | inactive: -0.011 | inactive: 0 | inactive: 0.089 | inactive: -0.025 | inactive: -0.026 | inactive: 0.012 | inactive: -0.008 | inactive: -0.035 | inactive: 0.003 | inactive: 0.039
23 | TXNRD2 (UniProt Q9NNW7) | inactive: 0.057 | inactive: 0.042 | inactive: -0.053 | inactive: -0.003 | inactive: 0.002 | inactive: 0.079 | inactive: 0.016 | inactive: 0.025 | inactive: -0.031 | inactive: 0.068
24 | TXNDC9 (UniProt O14530) | inactive: -0.044 | inactive: 0.044 | inactive: -0.03 | inactive: 0.062 | inactive: -0.035 | inactive: 0.015 | inactive: -0.011 | inactive: 0.041 | inactive: -0.008 | inactive: -0.031
25 | UBE2O (UniProt Q9C0C9) | inactive: 0.123 | inactive: -0.05 | inactive: 0.049 | inactive: -0.009 | inactive: 0.077 | inactive: 0.01 | inactive: 0.06 | inactive: 0.017 | inactive: -0.033 | inactive: 0.041
26 | TTC19 (UniProt Q6DKK2) | inactive: 0.025 | inactive: 0.018 | inactive: 0.016 | inactive: -0.004 | inactive: 0.036 | inactive: -0.001 | inactive: 0.021 | inactive: -0.024 | inactive: 0.011 | inactive: -0.004
27 | TXNL4A (UniProt P83876) | inactive: -0.03 | inactive: 0.007 | inactive: -0.003 | inactive: 0.037 | inactive: 0.073 | inactive: 0.023 | inactive: -0.037 | inactive: 0.012 | inactive: 0.041 | inactive: 0.056
28 | TTC38 (UniProt Q5R3I4) | active: 0.749 | inactive: 0.032 | inactive: 0.082 | inactive: 0.072 | inactive: 0.021 | inactive: -0.002 | inactive: 0.035 | inactive: 0.09 | inactive: -0.06 | inactive: 0.025
29 | TWF2 (UniProt Q6IBS0) | inactive: 0.045 | inactive: 0.059 | inactive: 0.066 | inactive: 0.013 | inactive: -0.008 | inactive: 0.028 | inactive: 0.001 | inactive: 0.02 | inactive: 0.031 | inactive: -0.035
30 | UBAP2 (UniProt Q5T6F2) | inactive: 0.038 | inactive: -0.03 | inactive: 0.017 | inactive: -0.011 | inactive: -0.049 | inactive: 0.002 | inactive: -0.049 | inactive: -0.021 | inactive: 0.021 | inactive: 0.019

For reference, some entries already given.
Row | Target | log2 fold change [1] | log2 fold change [2] | log2 fold change [3] | log2 fold change [4] | log2 fold change [5] | log2 fold change [6] | log2 fold change [7] | log2 fold change [8] | log2 fold change [9] | log2 fold change [10]
27 | TXNL4A (UniProt P83876) | inactive: -0.03 | inactive: 0.007 | inactive: -0.003 | inactive: 0.037 | inactive: 0.073 | inactive: 0.023 | inactive: -0.037 | inactive: 0.012 | inactive: 0.041 | inactive: 0.056
28 | TTC38 (UniProt Q5R3I4) | active: 0.749 | inactive: 0.032 | inactive: 0.082 | inactive: 0.072 | inactive: 0.021 | inactive: -0.002 | inactive: 0.035 | inactive: 0.09 | inactive: -0.06 | inactive: 0.025

Source: the supplement of paper PMC10849652
